# Source: PubChem BioAssay AID1224827 (NIAID, 2016)
# Assay: 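Retest primary hits on a TNF reporter with six siRNAs per gene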 (follow-up of hits)
# Cells: RAW264.7 G9 mouse macrophage reporter clone
# Reagent: single siRNA against mouse genes, 100 nM siRNA
# Duration: siRNA for 2 days, then LPS about 16 h
# Challenge: bacterial lipopolysaccharide (LPS), 10 ng/ml, cells fixed after overnight (about 16 h) stimulation
# Measurement: 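TNF promoter reporter red fluorescence in nuclei, background subtracted, normalised per plate and to non-targeting control siRNA, as z-scores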
# Scale: TNF reporter z-score, mean and TNF reporter z-score: higher = stronger Tnf promoter reporter signal; gene median z, three same-vendor siRNAs: higher = stronger Tnf reporter signal for the gene
# Active means: 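An siRNA is called active when its mean z-score over replicates is at least +2 or at most -2; control wells get no call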
# In all, the deposit lists about 3,800 reagents; this is an unselected part. About 2,200 of all reagents (57%) count as active. 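Active means a strong reporter change in either direction; calls are per siRNA, not per gene; qiagen siRNAs gave weaker effects.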 A number with no mark means an inactive call.
gene,PubChem SID,"TNF reporter z-score, mean","gene median z, three same-vendor siRNAs","TNF reporter z-score, repeat 1","TNF reporter z-score, repeat 2"
Or5d35 (olfactory receptor family 5 subfamily D member 35),SID315488721,-2.99 (active),-3.83,-3.83,-2.15
Or5d35 (olfactory receptor family 5 subfamily D member 35),SID315488722,-4.31 (active),-3.83,-3.83,-4.8
Or5d35 (olfactory receptor family 5 subfamily D member 35),SID315488723,-4.53 (active),-3.83,-3.2,-5.86
Or5d35 (olfactory receptor family 5 subfamily D member 35),SID315488724,1.17,-0.927,3.14,-0.802
Or5d35 (olfactory receptor family 5 subfamily D member 35),SID315488725,1.04,-0.927,3.48,-1.4
Or5d35 (olfactory receptor family 5 subfamily D member 35),SID315488726,-1.97,-0.927,-1.05,-2.89
Dusp13b (dual specificity phosphatase 13B),SID315485397,1.06,-3.56,0.517,1.61
Dusp13b (dual specificity phosphatase 13B),SID315485398,-3.97 (active),-3.56,-4.33,-3.62
Dusp13b (dual specificity phosphatase 13B),SID315485399,-4.19 (active),-3.56,-4.88,-3.51
Dusp13b (dual specificity phosphatase 13B),SID315485400,3.43 (active),-1.69,6.62,0.242
Dusp13b (dual specificity phosphatase 13B),SID315485401,-2.04 (active),-1.69,-1.94,-2.14
Dusp13b (dual specificity phosphatase 13B),SID315485402,-2.18 (active),-1.69,-1.45,-2.91
Or2n1d (olfactory receptor family 2 subfamily N member 1D),SID315488709,-1.22,-5.03,-4.91,2.48
Or2n1d (olfactory receptor family 2 subfamily N member 1D),SID315488710,-5.4 (active),-5.03,-4.62,-6.19
Or2n1d (olfactory receptor family 2 subfamily N member 1D),SID315488711,-5.36 (active),-5.03,-5.14,-5.58
Or2n1d (olfactory receptor family 2 subfamily N member 1D),SID315488712,0.232,0.232,0.821,-0.357
Or2n1d (olfactory receptor family 2 subfamily N member 1D),SID315488713,0.368,0.232,1.8,-1.07
Or2n1d (olfactory receptor family 2 subfamily N member 1D),SID315488714,0.229,0.232,2.06,-1.6
"Gtf2f1 (general transcription factor IIF, polypeptide 1)",SID315487383,5.21 (active),1.45,6.75,3.67
"Gtf2f1 (general transcription factor IIF, polypeptide 1)",SID315487384,1.45,1.45,0.0244,2.87
"Gtf2f1 (general transcription factor IIF, polypeptide 1)",SID315487385,-3.09 (active),1.45,-3.2,-2.98
"Gtf2f1 (general transcription factor IIF, polypeptide 1)",SID315487386,0.974,0.093,1.93,0.0211
"Gtf2f1 (general transcription factor IIF, polypeptide 1)",SID315487387,0.52,0.093,1.97,-0.933
"Gtf2f1 (general transcription factor IIF, polypeptide 1)",SID315487388,-0.554,0.093,0.165,-1.27
Ica1l (islet cell autoantigen 1-like),SID315486606,1.76,-3.71,0.253,3.27
Ica1l (islet cell autoantigen 1-like),SID315486607,-4.23 (active),-3.71,-4.3,-4.16
Ica1l (islet cell autoantigen 1-like),SID315486608,-4.29 (active),-3.71,-3.25,-5.33
Ica1l (islet cell autoantigen 1-like),SID315486609,2.53 (active),1.03,4.38,0.672
Ica1l (islet cell autoantigen 1-like),SID315486610,1.87,1.03,2.56,1.19
Ica1l (islet cell autoantigen 1-like),SID315486611,-0.0554,1.03,0.872,-0.983
Cntf (ciliary neurotrophic factor),SID315483975,-0.0329,-2.14,-1.16,1.1
Cntf (ciliary neurotrophic factor),SID315483976,-1.65,-2.14,-3.12,-0.175
Cntf (ciliary neurotrophic factor),SID315483977,-4.87 (active),-2.14,-4.85,-4.89
Cntf (ciliary neurotrophic factor),SID315483978,1.76,-0.793,3.44,0.08
Cntf (ciliary neurotrophic factor),SID315483979,-0.793,-0.793,-0.874,-0.712
Cntf (ciliary neurotrophic factor),SID315483980,-2.5 (active),-0.793,-1.62,-3.37
Spryd7 (SPRY domain containing 7),SID315486396,1.34,-4.46,0.7,1.98
Spryd7 (SPRY domain containing 7),SID315486397,-4.46 (active),-4.46,-4.12,-4.8
Spryd7 (SPRY domain containing 7),SID315486398,-5.07 (active),-4.46,-5.07,-5.06
Spryd7 (SPRY domain containing 7),SID315486399,1.81,1.57,4.13,-0.501
Spryd7 (SPRY domain containing 7),SID315486400,1.57,1.57,3.3,-0.151
Spryd7 (SPRY domain containing 7),SID315486401,1.43,1.57,3.31,-0.451
Htra3 (HtrA serine peptidase 3),SID315486879,-1.82,-3.57,-0.77,-2.87
Htra3 (HtrA serine peptidase 3),SID315486880,-3.57 (active),-3.57,-3.31,-3.84
Htra3 (HtrA serine peptidase 3),SID315486881,-4.84 (active),-3.57,-4.84,-4.83
Htra3 (HtrA serine peptidase 3),SID315486882,2.38 (active),-1.58,6.17,-1.42
Htra3 (HtrA serine peptidase 3),SID315486883,-1.9,-1.58,-1.74,-2.06
Htra3 (HtrA serine peptidase 3),SID315486884,-3.06 (active),-1.58,-0.701,-5.41
"Itpr1 (inositol 1,4,5-trisphosphate receptor 1)",SID315484443,0.607,-1.33,0.332,0.882
"Itpr1 (inositol 1,4,5-trisphosphate receptor 1)",SID315484444,-1.33,-1.33,-1.69,-0.965
"Itpr1 (inositol 1,4,5-trisphosphate receptor 1)",SID315484445,-3.88 (active),-1.33,-2.73,-5.02
"Itpr1 (inositol 1,4,5-trisphosphate receptor 1)",SID315484446,-0.888,-3.54,0.461,-2.24
"Itpr1 (inositol 1,4,5-trisphosphate receptor 1)",SID315484447,-3.55 (active),-3.54,-3.08,-4.01
"Itpr1 (inositol 1,4,5-trisphosphate receptor 1)",SID315484448,-4.36 (active),-3.54,-4,-4.72
Krtap19-1 (keratin associated protein 19-1),SID315487956,-2.85 (active),-3.85,-3.67,-2.02
Krtap19-1 (keratin associated protein 19-1),SID315487957,-3.5 (active),-3.85,-2.99,-4.02
Krtap19-1 (keratin associated protein 19-1),SID315487958,-4.51 (active),-3.85,-4.15,-4.87
Krtap19-1 (keratin associated protein 19-1),SID315487959,3.25 (active),-0.00584,5.71,0.795
Krtap19-1 (keratin associated protein 19-1),SID315487960,-0.00584,-0.00584,0.673,-0.685
Krtap19-1 (keratin associated protein 19-1),SID315487961,-2.38 (active),-0.00584,-1.61,-3.16

No new results follow: an excerpt of the list.
gene,PubChem SID,"TNF reporter z-score, mean","gene median z, three same-vendor siRNAs","TNF reporter z-score, repeat 1","TNF reporter z-score, repeat 2"
Ica1l (islet cell autoantigen 1-like),SID315486608,-4.29 (active),-3.71,-3.25,-5.33
Ica1l (islet cell autoantigen 1-like),SID315486609,2.53 (active),1.03,4.38,0.672
Ica1l (islet cell autoantigen 1-like),SID315486610,1.87,1.03,2.56,1.19
Ica1l (islet cell autoantigen 1-like),SID315486611,-0.0554,1.03,0.872,-0.983
Cntf (ciliary neurotrophic factor),SID315483975,-0.0329,-2.14,-1.16,1.1
Cntf (ciliary neurotrophic factor),SID315483976,-1.65,-2.14,-3.12,-0.175
Cntf (ciliary neurotrophic factor),SID315483977,-4.87 (active),-2.14,-4.85,-4.89
Cntf (ciliary neurotrophic factor),SID315483978,1.76,-0.793,3.44,0.08
Cntf (ciliary neurotrophic factor),SID315483979,-0.793,-0.793,-0.874,-0.712
